Data reported in publication PMC11165011.
No constants are given. Whether binding was seen depends on the method and setting. In cells and extracts the contact can be indirect. Some entries that bind do so weakly or less than the wild type. For some of these results: Sequences can lack the tags named with a protein. Each block holds one binder with its values, some of them ahead of it.

Amino acid sequences for entries named in this document (tags omitted).
UniProt P40763: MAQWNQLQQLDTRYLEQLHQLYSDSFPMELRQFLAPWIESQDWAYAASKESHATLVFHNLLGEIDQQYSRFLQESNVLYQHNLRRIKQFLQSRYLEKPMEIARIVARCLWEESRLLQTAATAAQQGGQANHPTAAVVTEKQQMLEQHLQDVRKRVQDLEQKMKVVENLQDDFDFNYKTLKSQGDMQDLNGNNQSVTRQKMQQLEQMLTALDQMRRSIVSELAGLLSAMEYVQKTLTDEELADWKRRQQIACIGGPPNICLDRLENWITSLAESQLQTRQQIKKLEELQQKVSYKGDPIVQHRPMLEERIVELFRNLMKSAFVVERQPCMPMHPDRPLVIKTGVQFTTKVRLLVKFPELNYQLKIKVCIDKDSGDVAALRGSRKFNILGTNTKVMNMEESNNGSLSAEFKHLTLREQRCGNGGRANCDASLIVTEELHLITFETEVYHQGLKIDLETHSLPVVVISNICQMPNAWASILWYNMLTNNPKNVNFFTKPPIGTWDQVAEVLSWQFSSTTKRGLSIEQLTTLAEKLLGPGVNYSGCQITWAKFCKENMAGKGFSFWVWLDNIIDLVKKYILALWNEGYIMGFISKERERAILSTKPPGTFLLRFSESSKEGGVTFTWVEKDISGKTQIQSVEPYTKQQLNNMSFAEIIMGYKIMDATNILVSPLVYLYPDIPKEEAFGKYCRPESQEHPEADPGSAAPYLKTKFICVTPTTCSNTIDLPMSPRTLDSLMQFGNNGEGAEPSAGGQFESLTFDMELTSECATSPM
UniProt P52630: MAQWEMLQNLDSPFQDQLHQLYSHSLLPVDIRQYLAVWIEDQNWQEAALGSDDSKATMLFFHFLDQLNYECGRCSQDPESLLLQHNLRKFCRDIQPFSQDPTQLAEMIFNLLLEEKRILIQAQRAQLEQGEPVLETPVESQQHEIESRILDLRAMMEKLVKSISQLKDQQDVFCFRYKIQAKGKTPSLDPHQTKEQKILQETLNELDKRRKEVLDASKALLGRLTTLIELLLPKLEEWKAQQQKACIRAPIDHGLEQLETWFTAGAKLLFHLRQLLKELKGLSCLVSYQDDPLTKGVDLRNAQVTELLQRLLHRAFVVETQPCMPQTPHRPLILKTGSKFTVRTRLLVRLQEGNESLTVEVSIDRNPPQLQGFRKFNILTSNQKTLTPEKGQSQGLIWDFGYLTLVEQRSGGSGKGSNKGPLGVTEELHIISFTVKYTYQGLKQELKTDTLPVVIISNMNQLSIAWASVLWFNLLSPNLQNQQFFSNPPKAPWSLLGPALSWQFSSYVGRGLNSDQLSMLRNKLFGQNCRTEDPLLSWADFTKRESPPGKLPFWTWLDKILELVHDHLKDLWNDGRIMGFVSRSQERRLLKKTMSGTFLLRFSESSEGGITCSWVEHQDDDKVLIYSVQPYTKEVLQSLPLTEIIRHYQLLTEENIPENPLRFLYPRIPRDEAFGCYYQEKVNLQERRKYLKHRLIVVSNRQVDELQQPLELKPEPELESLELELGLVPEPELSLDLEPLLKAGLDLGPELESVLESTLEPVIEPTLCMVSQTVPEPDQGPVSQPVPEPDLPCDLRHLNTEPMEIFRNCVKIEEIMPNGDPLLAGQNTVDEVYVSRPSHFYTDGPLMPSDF
UniProt P42224: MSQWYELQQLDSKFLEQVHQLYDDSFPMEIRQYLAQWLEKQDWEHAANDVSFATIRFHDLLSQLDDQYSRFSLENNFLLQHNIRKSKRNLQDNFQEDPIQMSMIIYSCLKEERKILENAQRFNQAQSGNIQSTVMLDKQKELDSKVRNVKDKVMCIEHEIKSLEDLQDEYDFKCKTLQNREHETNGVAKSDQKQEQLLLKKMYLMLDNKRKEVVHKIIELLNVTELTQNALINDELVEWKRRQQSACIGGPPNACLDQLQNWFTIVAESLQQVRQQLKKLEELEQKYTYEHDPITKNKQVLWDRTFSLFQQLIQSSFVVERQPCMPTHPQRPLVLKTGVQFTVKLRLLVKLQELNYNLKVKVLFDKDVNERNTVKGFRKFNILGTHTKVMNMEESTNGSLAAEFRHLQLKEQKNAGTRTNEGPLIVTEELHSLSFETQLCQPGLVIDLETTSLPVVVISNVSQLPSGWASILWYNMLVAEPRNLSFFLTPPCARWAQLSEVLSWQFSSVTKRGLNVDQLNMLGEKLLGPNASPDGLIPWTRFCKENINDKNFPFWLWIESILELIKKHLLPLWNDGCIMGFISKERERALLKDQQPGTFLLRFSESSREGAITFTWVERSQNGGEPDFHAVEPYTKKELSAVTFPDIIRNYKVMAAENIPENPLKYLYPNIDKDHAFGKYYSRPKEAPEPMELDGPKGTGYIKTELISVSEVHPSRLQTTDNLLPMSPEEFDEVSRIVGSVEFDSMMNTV

Key:
[1] = target: Flag-tagged STAT3 (1-770) (human) (UniProt P40763); experiment: co-IP; HEK293T cells co-transfected with Flag-STAT3 and HA-PRTN3; lysates precipitated with anti-Flag or anti-HA overnight at 4 °C, protein A/G agarose; immunoblot
[2] = target: STAT2, endogenous in HEK293T cells (human (endogenous in HEK293T)) (UniProt P52630); experiment: co-IP; HEK293T cells overexpressing HA-PRTN3; lysates precipitated with anti-STAT1, anti-STAT2 and anti-STAT5 antibodies; immunoblot
[3] = target: STAT1, endogenous in HEK293T cells (human (endogenous in HEK293T)) (UniProt P42224); experiment: as above
[4] = target: STAT3, endogenous in human primary CD34+ cells (human (endogenous in primary CD34+ cells)) (UniProt P40763); experiment: co-IP; lysates of human primary CD34+ cells from cord blood, endogenous proteins; anti-STAT3 or anti-PRTN3; immunoblot

binding [1]: binds
binding [2]: no binding
binding [3]: no binding
B1: HA-tagged PRTN3 (Proteinase 3), full length (enzyme, UniProt P24158 28-248)
chain: IVGGHEAQPHSRPYMASLQMRGNPGSHFCGGTLIHPSFVLTAAHCLRDIPQRLVNVVLGAHNVRTQEPTQQHFSVAQVFLNNYDAENKLNDVLLIQLSSPANLSASVATVQLPQQDQPVPHGTQCLAMGWGRVGAHDPPAQVLQELNVTVVTFFCRPHNICTFVPRRKAGICFGDSGGPLICDGIIQGIDSFVIWGCATRLFPDFFTRVALYVDWIRSTLR

binding [4]: binds
B2: PRTN3, endogenous in human primary CD34+ cells (enzyme, UniProt P24158 28-248)
chain: B1 chain
